Whole data set: some 33,000 sequences, median “E-score (-0.5 to 0.5)” near -0.016, cut for the highest 2% near 0.3. The list shows a part of the results.
Target: T1, Yer184c (UniProt P39961)
T1 sequence: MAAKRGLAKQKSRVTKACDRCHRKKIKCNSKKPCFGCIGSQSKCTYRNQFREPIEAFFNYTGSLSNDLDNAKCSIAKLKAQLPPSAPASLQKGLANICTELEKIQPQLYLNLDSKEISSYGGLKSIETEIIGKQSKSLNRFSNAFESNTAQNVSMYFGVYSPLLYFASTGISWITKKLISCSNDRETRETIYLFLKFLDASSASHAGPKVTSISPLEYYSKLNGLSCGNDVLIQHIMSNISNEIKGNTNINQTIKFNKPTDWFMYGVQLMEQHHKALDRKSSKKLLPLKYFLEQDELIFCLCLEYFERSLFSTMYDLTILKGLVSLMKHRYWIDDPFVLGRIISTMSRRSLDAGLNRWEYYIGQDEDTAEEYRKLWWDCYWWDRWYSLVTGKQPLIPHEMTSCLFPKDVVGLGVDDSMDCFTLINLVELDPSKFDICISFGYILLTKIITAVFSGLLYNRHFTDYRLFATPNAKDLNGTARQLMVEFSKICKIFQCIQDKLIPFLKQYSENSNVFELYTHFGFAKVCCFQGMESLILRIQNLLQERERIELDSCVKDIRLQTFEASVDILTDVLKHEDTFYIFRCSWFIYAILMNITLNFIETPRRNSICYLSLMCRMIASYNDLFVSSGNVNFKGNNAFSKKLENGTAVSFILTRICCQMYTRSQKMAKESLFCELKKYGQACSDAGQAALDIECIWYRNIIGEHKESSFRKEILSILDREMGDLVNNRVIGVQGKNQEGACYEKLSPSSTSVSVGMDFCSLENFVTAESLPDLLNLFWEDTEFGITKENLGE
Experiment: PBM E-score (8-mer binding enrichment) (E-score (-0.5 to 0.5)); higher = stronger / more preferred TF binding
Conditions: protein concentration: 100 nM; construct: GST-full length
How it was run: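 Using PURExpress in vitro transcription/translation, GST-tagged yeast transcription factors were made in full-length or DNA-binding-domain form. These were applied at about 100-200 nM to double-stranded universal all-10-mer Agilent arrays, and bound protein was detected with fluorescent anti-GST. Scans were normalised with masliner before the Universal PBM Analysis Suite assigned E-scores to ungapped eight-base words pooled with their reverse complements.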

Sequence | PBM E-score
TGTGGCAA | 0.119
GACTCCAA | -0.214
CGCGGTAG | 0.124
GCTACAGA | -0.185
CCTGACCA | -0.0185
CAGACTTA | -0.16
GCTCGTTA | -0.0877
ATATTAAC | 0.216
ATAACAAC | 0.129
CTCTGCCA | -0.311
GCATACCC | -0.214
CTCGGACA | 0.306
CCTAACTC | -0.0914
CAAACGTC | -0.193
GCAATCGC | -0.191
ATTGTCTA | 0.0903
ATCTGATA | -0.13
CGTAGGCA | -0.242
AATGGCTC | -0.0266
CCACAATA | -0.112
CTAATTGA | 0.0949
CCAACATC | -0.048

Sequence | PBM E-score
AAACGAGC | 0.0412
ACACGTCT | -0.143
ATTCACCA | 0.0317
CTTGTACA | 0.0693
CTACACCA | -0.0614
AGTTTAAT | 0.113
TCTTGGCA | 0.0543
AATCTAAG | -0.064
AAACCGCT | -0.0917
ACATGGTC | -0.213
CCTGAGCC | -0.183
AACGACAG | -0.12
GACGCCAA | -0.164
GAAGAGTA | 0.113
CCAAGCTA | -0.204
AAATAGAG | 0.201
CGGGAACA | 0.313
ACGTGTGG | -0.211
CTCGGCAC | 0.31
CGTTCTGC | 0.117
AGTTGTGG | 0.0188
ACCAAGCC | -0.113

Sequence | PBM E-score
AAGGCTAC | -0.0953
CCCAGAAA | 0.0141
GGGCAAAC | -0.132
TAGCCGGA | 0.401
ACCCTGCC | -0.2
GGCTCGCA | -0.123
ATTGGAAG | -0.0549
GCACAATA | -0.0105
GATGCGAA | -0.0276
ATGTATCC | -0.0133
CCGATTTA | 0.249
ACCTAAGA | -0.173
ACAAATCT | 0.148
ATACCATG | -0.113
AGGAATAA | 0.164
AGGGGTGG | -0.247
GATCAAGC | -0.0257
CAAGACTG | -0.055
CATCCGTA | 0.206
CACACGTG | -0.136
GAGCACCA | -0.167
CCGCCAAG | -0.154

Sequence | PBM E-score
CGCCTGGC | -0.154
ACAAGACG | -0.143
CGAACTGC | 0.059
CGACTTAA | 9e-05
AGAAACTG | 0.0554
CTCCTGCC | -0.137
GGCAATAA | 0.0381
TGTCGAAA | -0.0144
ATCTAGTG | -0.115
AGTAAGGG | -0.0689
CAGATTGA | -0.128
GGTGGAGA | -0.397
CAATAGTG | 0.0762
CTGGTGAC | -0.268
GGAAAGCA | 0.128
CTCAACTC | 0.0921
AGAAACTC | 0.195
CCGGTCAC | 0.152
CCAACGGA | 0.101
GCTACTCA | 0.00757

Look-ups from above.
PBM E-score, CTCCTGCC reads -0.137
PBM E-score, CGAACTGC reads 0.059
PBM E-score, GGAAAGCA reads 0.128

From the supplement of paper PMC3334620
